In PMC6230994:
Results are given in words; binding and its absence hold for the method and conditions named. Binding seen in cells or lysates may run through a third protein. Some binding calls cover weakened binding; strength is not graded here. Tags and fused reporters may be left off the sequences shown.

Protein sequences, listed by entry. Tags and fused reporters are not part of them.
UniProt F4JL11: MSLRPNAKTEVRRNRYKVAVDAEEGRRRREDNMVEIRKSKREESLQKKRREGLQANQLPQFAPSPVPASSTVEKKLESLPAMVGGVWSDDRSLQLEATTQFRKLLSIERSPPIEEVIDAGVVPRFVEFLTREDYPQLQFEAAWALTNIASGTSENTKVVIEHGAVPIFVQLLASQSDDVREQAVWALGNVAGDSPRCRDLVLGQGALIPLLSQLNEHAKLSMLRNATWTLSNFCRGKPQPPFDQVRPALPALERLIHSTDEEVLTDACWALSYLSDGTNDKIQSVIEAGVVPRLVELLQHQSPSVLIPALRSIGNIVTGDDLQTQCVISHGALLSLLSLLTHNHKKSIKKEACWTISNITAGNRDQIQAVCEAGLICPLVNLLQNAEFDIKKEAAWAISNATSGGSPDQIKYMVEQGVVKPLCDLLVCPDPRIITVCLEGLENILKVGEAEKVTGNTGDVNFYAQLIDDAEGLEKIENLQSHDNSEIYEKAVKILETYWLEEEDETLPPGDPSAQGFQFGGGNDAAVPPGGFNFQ

Biological target: IMPORTIN-α2:GFP (Arabidopsis thaliana) (UniProt F4JL11)
Assay: co-IP; GFP-tagged importin-α (or YFP) and RFP-tagged protein co-expressed in N. benthamiana, 72 h; leaf extract in 50 mM Tris, 150 mM NaCl, 10% glycerol, 1 mM EDTA, 5 mM DTT, pH 7.5; precipitated with α-GFP-nanobody:Halo:His6 magnetic beads, 2 h at 4°C; α-RFP western blot

- binding: binds
B1: SAP:RFP (PARP2 SAP domains fused to RFP) (domain or fragment, UniProt Q11207 1-127)
chain: MANKLKVDELRLKLAERGLSTTGVKAVLVERLEEAIAEDTKKEESKSKRKRNSSNDTYESNKLIAIGEFRGMIVKELREEAIKRGLDTTGTKKDLLERLCNDANNVSNAPVKSSNGTDEAEDDNNGF
